The target in the experiment is trypsin (serine protease). Description: phage ELISA, trypsin coated in well, anti-M13/HRP detection. Background: An ELISA detects its analyte on a solid surface through an enzyme-linked reagent.

No constants are given. Whether binding was seen depends on the method and setting. Sequences can lack the tags named with a protein.

The values that follow come from patent publication US20030182691A1.

B1: phage displaying the OV7 protease inhibitor (OV7 from Onchocerca volvulus expressed on the surface of filamentous phage as a fusion to the gene 3 phage coat … (protein)
chain: AKNPSKMESKTGENQDRPVLLGGWEDRDPKDEEILELLPSILMKVNEQSNDEYHLMPIKLLKVSSQVVAGVKYKMDVQVARSQCKKSSNEKVDLTKCKKLEGHPEKVMTLEVWEKPWENFMRVEILGTKEV
Take B1: the binding entry was “no binding (tested: Phage Diluted 1 in 100)”.
